Laboratory results reported in article PMC4912613, “A broad analysis of resistance development in the malaria parasite” (Nature Communications, 2016).

Columns and labels:
Type in all cases: cell-based, Plasmodium falciparum
[1] = tested on: hsp90 (D88Y, parent Dd2); test: Cross-resistance EC50 assay, hsp90; conditions: SYBR green 72 hour assay, synchronized parasites, 384-well format
Text: (§1) To evaluate potential overlapping activity against known antimalarial drug targets, we performed dose-response studies with each compound against our assembled set of drug-resistant lines and their corresponding parents, in an asexual blood stage proliferation assay (Table 1). Comparisons were made to the drug-sensitive strain 3D7 when a parent was unavailable (TM90C2A, W2 and Dd2). As laboratories conducted EC50 assays with different strains and protocols, all comparisons were made between assays from the same laboratory and under the same assay conditions. Compounds displaying >5-fold EC50 shifts relative to the parent or sensitive strain were flagged as having potentially non-novel targets. Average fold shifts per strain ranged from 0.82 to 2.34, with a median of 1.23 indicating there was not common resistance to any one resistant clone. No resistance patterns were observed when classifying the compounds based on chemical structure, but this was not surprising given the diversity of compounds chosen. On the other hand, given that these confirmed compounds were derived from larger unconfirmed hit lists to which some filtration criteria may have been applied (for example, elimination of obvious dihydrofolate reductase inhibitors[32]), some[10][11][12][13] pre-existing bias may exist in the set. […]
(§2) Alternatively, a SYBR Green-based proliferation approach was used for the 72-h assay, as previously described. Briefly, a culture of either synchronized or asynchronous parasitized RBCs (0.3% parasitemia and 4% haematocrit) in screening medium (identical to supplemented medium above except no serum was added) was exposed to serial drug dilutions. Plates were incubated at 37 °C and gassed with 93% N2, 4% CO2 and 3% O2 for 72 h. Following incubation, 10 × SYBR Green I (Invitrogen; supplied in 10,000 × concentration) in lysis buffer ([…], 5 mM EDTA, 0.16% Saponin wt per vol and 1.6% Triton X vol per vol) was added to the wells and the plates were incubated overnight at room temperature before plate reading. EC50 assays were repeated three times, taking the average EC50 value from each assay set, and removing any outliers using a single iteration of Grubbs' test, eliminating values with z-scores above the critical z-value (α=0.05). The raw EC50 values for synchronized parasites assayed in a 384-well format are listed in Supplementary Data 4. The raw EC50 values for asynchronous parasites assayed in a 96 or 1536-well format are listed in Supplementary Data 5.
(§3) EC50 values for each strain were compared with those of the corresponding parent strain to determine fold-shift changes and identify resistance. To minimize the cause variance between assays, all comparisons were conducted between strains assayed under identical conditions. A one-way ANOVA followed by a Dunnet's post-test was conducted in GraphPad Prism to identify significant changes between the parent and resistant strain.

[2] = tested on: PfATP4-Mut1 (PfATP4 V178I, parent W2); test: Cross-resistance EC50 assay, PfATP4-Mut1; conditions: hypoxanthine 48-hour assay; synchronized parasites; 96-well format; strain PfATP4 Mut1
Text: (§4) To evaluate potential overlapping activity against known antimalarial drug targets, we performed dose-response studies with each compound against our assembled set of drug-resistant lines and their corresponding parents, in an asexual blood stage proliferation assay (Table 1). Comparisons were made to the drug-sensitive strain 3D7 when a parent was unavailable (TM90C2A, W2 and Dd2). As laboratories conducted EC50 assays with different strains and protocols, all comparisons were made between assays from the same laboratory and under the same assay conditions. Compounds displaying >5-fold EC50 shifts relative to the parent or sensitive strain were flagged as having potentially non-novel targets. Average fold shifts per strain ranged from 0.82 to 2.34, with a median of 1.23 indicating there was not common resistance to any one resistant clone. No resistance patterns were observed when classifying the compounds based on chemical structure, but this was not surprising given the diversity of compounds chosen. On the other hand, given that these confirmed compounds were derived from larger unconfirmed hit lists to which some filtration criteria may have been applied (for example, elimination of obvious dihydrofolate reductase inhibitors[32]), some[10][11][12][13] pre-existing bias may exist in the set.
(§5) The 48-h assay was carried out in a 96-well format following standard methods using the ^3H-hypoxanthine incorporation assay. The raw EC50 values corresponding to this assay can be found in Supplementary Data 3. Briefly, this assay relies on the parasite incorporation of labelled hypoxanthine that is proportional to P. falciparum growth. A culture of parasitized RBCs (0.5% parasitemia with a percentage of ring stage higher than 70% of total parasitemia, 2.0% haematocrit) in RPMI-1640, […] and 5 μM hypoxanthine was exposed to drug serial dilutions. Plates were incubated for 24 h at 37 °C, 5% CO2, 5% O2 and 90% N2. After 24 h of incubation, ^3H-hypoxanthine was added and plates were incubated for an additional 24-h period. After that, parasites were harvested on a glass fibre filter using a TOMTEC Cell Harvester 96. Filters were dried and melt-on scintillator sheets were used to determine the incorporation of ^3H-hypoxanthine. Radioactivity was measured using a microbeta counter. Data were normalized using the incorporation of the positive (parasitized RBCs without drug) and negative (same culture with artesunate at 2 μM) controls. All assays were conducted in triplicate using three independently grown cultures, and EC50 values were determined using the XLfit add-in module for Excel (version 2.3.1) from Grafit (version 5.3.1.3), where parameter h is the assay hill slope, x is the compound concentration and y is the inhibition of growth effect. The XLfit equation is: […]
as §2, with “5. […]” for “5.”

[3] = tested on: DHODH (E182D, parent 3D7); test: Cross-resistance EC50 assay, DHODH; conditions: SYBR green 72 hour assay, synchronized parasites, 384-well format
Text: as §1, §2, §3

[4] = tested on: TM90C2A (DHFR, folate pathway; compared with 3D7); test: Cross-resistance EC50 assay, TM90C2A; set-up: unit not given beside the values; conditions: hypoxanthine 48-hour assay; synchronized parasites; 96-well format; strain TM90C2A
Text: as §4, §5, §3

SMILES	HSP90 (Dd2 Parent) Average Hill Slope ([1]; strain HSP90 (Dd2 parent))	PfATP4 Mut1 (W2F6 Parent) Average Hill Slope [2]	DHODH (3D7 Parent) Average Hill Slope ([3]; strain DHODH (3D7 parent))	TM90C2A (3D7 Parent) Average Hill Slope [4]	HSP90 (Dd2 Parent) Average Hill Slope ([1]; HSP90 strain)	DHODH (3D7 Parent) Average Hill Slope ([3]; DHODH strain)
CN1CCN(c2ccc(Nc3c4ccccc4nc4ccccc34)cc2)CC1 [MMV006172]	4.96	2.89	5.61	3.76	–	–
O=C(Nc1ccc(Cl)c(Cl)c1)Nc1ccc(Cl)c(Cl)c1 [MMV665852]	2.47	8.12	3.87	11.2	–	–
CCCCCCCN(Cc1ccc(OC(C)(C)C(=O)OCC)cc1)C(=O)Nc1ccc(Cl)cc1OCC [MMV021735]	4.62	2.35	3.30	2.98	–	–
O=C(Nc1ccccc1O)c1ccc(Oc2cccc(C(=O)Nc3ccccc3O)c2)cc1 [MMV665888]	1.78	1.71	1.86	2.09	–	–
c1cc(-c2cnc3ccc(-c4ccc(N5CCOCC5)cc4)nn23)ccn1 [MMV668311]	–	1.69	4.59	6.07	–	–
COc1ccc2c3c([nH]c2c1)[C@H](CO)N(C(C)=O)CC31CCN(C(=O)Nc2ccccc2F)CC1 [MMV673482]	–	0.83	–	0.87	2.21	1.74
Nc1ccc(-c2nc3cc(Cc4ccc5[nH]c(-c6ccc(N)cc6)nc5c4)ccc3[nH]2)cc1 [MMV665943]	4.92	1.10	3.99	2.47	–	–
CCOc1cc2c(cc1OCC)C(c1cc(Cl)ccc1O)NCC2 (stereo not drawn) [MMV000478]	1.35	2.16	1.41	1.36	–	–
CNCc1ccc2nc(-c3coc(Cc4cc(Cl)ccc4OCC(C)C)n3)[nH]c2c1.Cl.Cl [MMV026596]	4.17	1.50	3.80	2.04	–	–
Cl.c1ccc2c(NCCCCCCNc3c4c(nc5ccccc35)CCCC4)c3c(nc2c1)CCCC3 [MMV019555]	3.74	5.28	10.4	5.21	–	–
